Test results taken from patent US20250257148A1 (CROSSLINK THERAPEUTICS, published 2025).
No constants are given. Whether binding was seen depends on the method and setting. Some entries that bind do so weakly or less than the wild type.

Tests used:
[1] = target: human TAP1 NBD with N676G, S677N, Q680R, E682Q and Q683R substitutions, cysteines replaced by serines, and a C-terminal His tag (construct 24) (human) (UniProt Q03518); assay: mass photometry and DLS; homodimerization in ATP
[2] = target: human TAP1 NBD with N676G, S677N, Q680R, E682Q and Q683R substitutions, cysteines replaced by serines, and a C-terminal His tag (construct 24) (human) (UniProt Q03518); assay: mass photometry (FIG. 10 legend); homodimerization
[3] = target: human TAP1 NBD with N676G, S677N, Q680R, E682Q and Q683R substitutions, cysteines replaced by serines, and a C-terminal His tag (construct 24) (human) (UniProt Q03518); assay: size exclusion chromatography (FIG. 9 legend); homodimerization
[4] = target: human TAP1 NBD with N676G, S677N, Q680R, E682Q and Q683R substitutions, cysteines replaced by serines, and a C-terminal His tag (construct 24) (human) (UniProt Q03518); assay: dynamic light scattering, 1 mM ATP against 1 mM ADP; homodimerization
[5] = target: human TAP1 NBD with N676G, S677N, Q680R, E682Q and Q683R substitutions, cysteines replaced by serines, and a C-terminal His tag (construct 24) (human) (UniProt Q03518); assay: size exclusion chromatography, 1 mM ATP against 1 mM ADP; homodimerization

Measured: binding

human TAP1 NBD with N676G, S677N, Q680R, E682Q and Q683R substitutions, cysteines replaced by serines, and a C-terminal His tag (construct 24) (from UniProt Q03518 492-748)
binds: all assays above
